Results as given in the supplement of paper PMC4604168 (melanoma cell lines).
This is one part of the list. Many values rest on one well or one pass, so single values are uncertain.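 The apoptosis fraction was the count of cleaved-PARP antibody-stained nuclei relative to all DNA-stained nuclei, imaged in 1,536-well plates. Screening doses were set so most cells survived, and baseline and induced cleaved-PARP levels vary greatly across cell lines.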

Key:
Assay in all cases: cleaved PARP positive nuclei fraction relative to DMSO control; melanoma cells; higher = more apoptosis
Conditions in all cases: library dose: low library concentration; 72 h
[1] = tested on: MZ2-MEL
[2] = tested on: MeWo
[3] = tested on: RPMI7951
[4] = tested on: RVH-421
[5] = tested on: SkMel28
[6] = tested on: SkMel2
[7] = tested on: SkMel30
[8] = tested on: SkMel5
[9] = tested on: UACC257
[10] = tested on: UACC62
[11] = tested on: WM115
[12] = tested on: WM1716
[13] = tested on: WM1745
[14] = tested on: WM3526
[15] = tested on: WM3619
[16] = tested on: WM451Lu

Row | Compound | cleaved PARP positive nuclei fraction [1] [%] | cleaved PARP positive nuclei fraction [2] [%] | cleaved PARP positive nuclei fraction [3] [%] | cleaved PARP positive nuclei fraction [4] [%] | cleaved PARP positive nuclei fraction [5] [%] | cleaved PARP positive nuclei fraction [6] [%] | cleaved PARP positive nuclei fraction [7] [%] | cleaved PARP positive nuclei fraction [8] [%] | cleaved PARP positive nuclei fraction [9] [%] | cleaved PARP positive nuclei fraction [10] [%] | cleaved PARP positive nuclei fraction [11] [%] | cleaved PARP positive nuclei fraction [12] [%] | cleaved PARP positive nuclei fraction [13] [%] | cleaved PARP positive nuclei fraction [14] [%] | cleaved PARP positive nuclei fraction [15] [%] | cleaved PARP positive nuclei fraction [16] [%]
1 | Cc1cc(N2CCOCC2)cc2[nH]c(-c3c(NC[C@@H](O)c4cccc(Cl)c4)cc[nH]c3=O)nc12 + CN(NC(=O)CC(=O)NN(C)C(=S)c1ccccc1)C(=S)c1ccccc1 [STA4783] (first compound 0.2 µM, partner dose 0.006 µM) | 93 | 67.8 | 57.5 | 130 | 197 | 55.1 | 101 | 90.4 | 130 | 194 | 102 | 233 | 387 | 60.6 | 171 | 31.2
2 | OCc1c[nH]c2ccccc12 [Indole-3-carbinol] + O=C(O)C(=O)Nc1sc2c(c1C(=O)O)CCNC2 [TCS401] (first compound 0.8 µM, partner dose 1.66667 µM) | 118 | 43.5 | 30.5 | 197 | 38.6 | 83.6 | 90.7 | 173 | 129 | 124 | 58.5 | 44.8 | 94.5 | 225 | 93.2 | 32.2
3 | OCc1c[nH]c2ccccc12 [Indole-3-carbinol] + O=C1NC(=O)/C(=C/c2ccc(-c3ccc(F)cc3O)o2)S1 [AS252424] (first compound 0.8 µM, partner dose 1 µM) | 161 | 91.8 | 63.7 | 554 | 294 | 135 | 43.7 | 72 | 151 | 66.8 | 119 | 28 | 94.5 | 75.6 | 93.3 | 99.2
4 | O=C(CCCCCCC(=O)Nc1ccccc1)NO [vorinostat] + Cc1cc(N2CCOCC2)cc2[nH]c(-c3c(NC[C@@H](O)c4cccc(Cl)c4)cc[nH]c3=O)nc12 [BMS536924] (first compound 0.08 µM, partner dose 0.2 µM) | 178 | 97.4 | 112 | 141 | 90.5 | 64.7 | 79.2 | 61 | 61.4 | 53.6 | 45.5 | 66.8 | 123 | 60.4 | 123 | 37.8
5 | Cn1cncc1[C@@](N)(c1ccc(Cl)cc1)c1ccc2c(c1)c(-c1cccc(Cl)c1)cc(=O)n2C [tipifarnib] + CN(C)S(=O)(=O)c1ccc2c(c1)/C(=C/c1cc3c([nH]1)CCCC3)C(=O)N2 [SU6656] (first compound 0.01 µM, partner dose 0.4 µM) | 127 | 71 | 148 | 75 | 101 | 107 | 134 | 101 | 76.9 | 205 | 907 | 110 | 90.5 | 63.6 | 241 | 251
